Among all 220,000 compounds or so, about 2,400 (1.1%) were called active. The shares of active, inactive and inconclusive entries below differ from those in the screen. Calls follow the shape of the dose curve; as a rule, active = well fitted inhibition curve with a large enough effect; inconclusive = small, poorly fitted or top-dose-only effect, or effect the other way; inactive = no such curve, though single readings can be large or run the other way. A potency beside an inconclusive call is a rough fit, not a confirmed value.
Test: qHTS Multiplex Assay to Identify Dual Action Probes in a Cell Model of Huntington: Aggregate Formation (GFP); also: nearly all actives have a fitted effect of over 60% in size
Details: PC12 HttQ103-GFP aggregates, Acumen cytometry, 40 h; activity change, negative = inhibition: at 46.1 µM (top of the series) unless noted
Method in brief: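 Inducible Q103 Huntingtin exon 1–GFP PC12 line, 1500 cells/well in phenol red free DMEM with 5% equine and 5% calf serum. Tebufenozide 100 nM induced expression; compounds titrated; aggregates quantified by cytometry.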
% is scaled to controls: 0 for no effect and ±100 for the full control effect; potency is read from the fitted curve at half-maximal effect.

| Structure (SMILES) | Potency | activity change, negative = inhibition |
| --- | --- | --- |
| Cc1ccccc1Cn1nc(C)c(NC(=O)c2noc3c2CC(C(C)(C)C)CC3)c1C (stereo unspecified) | inconclusive: 35.5 µM [inhibitor, single point] |  |
| CCNC(=O)C(=O)N/N=C/c1cc([N+](=O)[O-])ccc1O | inconclusive: 11.2 µM [inhibitor, single point] |  |
| Cc1c(Cl)cccc1NC(=O)C(=O)NNC(=O)c1ccccc1F |  | inactive: -12.3% |
| Cc1cc(C)cc(N=c2c([N+](=O)[O-])nn(-c3ccc4c(c3)OCCO4)n2O)c1 | inconclusive: 6.31 µM [inhibitor, full curve, poor fit] |  |
| S=C1NCCOCCOCCOCCOCCN1 | inconclusive: 35.5 µM [activator, single point] |  |
| CNCCCC12CCC(c3ccccc31)c1ccccc12 | inconclusive: 35.5 µM [inhibitor, single point] |  |
| O=C(COc1ccccc1Br)NC1CCCC1 | inconclusive: 0.562 µM [inhibitor, partial curve, poor fit] |  |
| CCn1c(=O)c(-[n+]2ccccc2)c(O)c2ccccc21 |  | inactive: -3.32% |
| Cn1c(O)c(N=NC(=O)c2ccccc2O)c2ccccc21 |  | inactive: 10.9% [at 9.22 µM] |
| O=c1[nH]n(-c2ccc(Cl)cc2)c(=O)c(Cl)c1Cl | inconclusive: 35.5 µM [activator, single point] |  |
| Cc1c(/C=N/NC(N)=O)c2ccccn2c1C(=O)c1ccc(F)cc1 | inconclusive: 35.5 µM [inhibitor, single point] |  |
| Cc1c(O)nc(SCC(=O)Nc2ccc3c4c(cccc24)CC3)n(-c2ccc(F)cc2)c1=O | inconclusive: 12.6 µM [activator, partial curve] |  |
| Cc1onc(C(=O)NCc2ccc(F)cc2)c1[N+](=O)[O-] | inconclusive: 2.82 µM [activator, partial curve] |  |
| CCOC(=O)C1=C(O)c2ccccc2C(=O)/C1=C\c1ccc(C)cc1 |  | inactive: 14.6% |
| CC(CC1C(C#N)=C(N)SC(N)=C1C#N)c1ccccc1 (stereo unspecified) | inconclusive: 28.2 µM [inhibitor, single point] |  |
| COc1cc(NC(=O)CN2c3cccc4cccc(c34)S2(=O)=O)cc(OC)c1OC | inconclusive: 15.8 µM [inhibitor, single point] |  |
| O=C(Nc1ccccc1F)c1ccc([N+](=O)[O-])s1 | inconclusive: 35.5 µM [inhibitor, single point] |  |
| O=C(CSc1nc(C2CCCCC2)nc2ccccc12)NCc1ccc2c(c1)OCO2 | inconclusive: 35.5 µM [activator, single point] |  |
| Cc1ccc(-c2ccc(CCC(=O)O)n2C(C)C)cc1 |  | inactive: 4.35% |
| O=C(c1ccccc1Cl)N(Cc1ccc(Br)cc1)N1C(=O)CCC1=O | inconclusive: 10 µM [activator, partial curve, poor fit] |  |
| c1ccc2c(-c3nnc4n3CCCCC4)cc(-c3ccncc3)nc2c1 | inconclusive: 5.01 µM [inhibitor, single point] |  |
| CCOC(=O)Cc1csc(N/C(=N/S(=O)(=O)c2ccc(F)cc2F)c2ccccc2)n1 | inconclusive: 3.16 µM [inhibitor, single point] |  |
| COc1ccc(C(CNC(=O)CN2C(=O)NC3(CC(C)CC(C)(C)C3)C2=O)N2CCOCC2)cc1 (stereo unspecified) | inconclusive: 2.51 µM [inhibitor, partial curve] |  |
| CSc1ccccc1NC(=S)NC1CCCCC1 | inconclusive: 25.1 µM [activator, single point] |  |

| Structure (SMILES) | Potency | activity change, negative = inhibition |
| --- | --- | --- |
| Cc1nn(C)c(C)c1CNC(=O)c1cc2n(n1)C(C(F)(F)F)CC(c1cccs1)N2 (stereo unspecified) | inconclusive: 10 µM [inhibitor, partial curve] |  |
| COc1ccc2c(C=O)c[nH]c2c1 |  | inactive: 24.6% |
| Cc1cccc(-n2nnnc2SCn2nnc3ccccc3c2=O)c1 | inconclusive: 15.8 µM [inhibitor, single point] |  |
| N#CC1=C(N)N(c2ccc(Cl)c(Cl)c2)C(=O)C1 |  | inactive: 12.9% |
| CC(NC(=O)C1(c2cccs2)CCOCC1)c1ccccc1 (stereo unspecified) | inconclusive: 3.55 µM [inhibitor, single point] |  |
| CC(C)(CNC(=S)NCCc1ccccc1)CNC(=S)NCCc1ccccc1 | inconclusive: 35.5 µM [inhibitor, single point] |  |
| c1ccc(C[n+]2cccc3c4ccccc4ccc32)cc1 | active: 28.2 µM |  |
| CCCc1nc2sc3c(=O)n(N)cnc3c2c2c1COC(C)(C)C2 | inconclusive: 1 µM [inhibitor, single point] |  |
| COc1ccccc1C(CC(=O)N1CCCC1)c1ccc2c(c1)OCO2 (stereo unspecified) |  | inactive: -14.4% |
| COC(=O)c1cccc(NC(=O)CSc2nnnn2C)c1 |  | inactive: 2.49% |
| O=S(=O)(NCc1cc(-c2ccc(Cl)cc2)no1)c1ccccc1 |  | inactive: 11.4% |
| COc1cccc(/C=N/NC(=O)c2cc(C34CC5CC(CC(C5)C3)C4)[nH]n2)c1 | inconclusive: 0.708 µM [activator, single point] |  |
| COc1cccc(N2C(=O)CC(NNC(=O)c3cccs3)C2=O)c1 (stereo unspecified) | inconclusive: 6.31 µM [activator, single point] |  |
| CC1CCCC/C1=N\Nc1ccc(S(N)(=O)=O)cc1[N+](=O)[O-] (stereo unspecified) | inconclusive: 5.01 µM [inhibitor, single point] |  |
| CC(=O)c1cccc(NC2c3ncccc3C(=O)N2Cc2ccco2)c1 (stereo unspecified) | inconclusive: 3.98 µM [activator, single point] |  |
| CC1CC(C)CN(C(=O)C(NS(=O)(=O)c2ccc3c(c2)oc(=O)n3C)C(C)C)C1 (stereo unspecified) |  | inactive: -4.66% |
| Cc1[nH]c(=O)c(C(=O)/C=C/c2ccccc2)c2c1CCCC2 | inconclusive: 25.1 µM [inhibitor, single point] |  |
| O=C(NC(=S)N(Cc1ccccc1)Cc1ccccc1)C1CCCCC1 | inconclusive: 14.1 µM [inhibitor, single point] |  |
| CCCCNC(=O)CCC(=O)NNc1nc2ccccc2c2nc(-c3ccccc3)nn12 | inconclusive: 8.91 µM [inhibitor, partial curve] |  |
| Cc1cc(C(=O)CSc2nnc(-c3ccco3)o2)c(C)n1-c1ccc2c(c1)OCCO2 | active: 8.91 µM |  |
| COc1ccc(/C=N/Nc2nc(NCc3ccco3)nc(Nc3ccc(OC)cc3)n2)cc1 |  | inactive: 8.97% |
| Cc1ccc(O)c(/C=N/NC(=O)C2=NNC(c3ccccc3)(c3ccccc3)C2)c1 | inconclusive: 1.58 µM [inhibitor, partial curve] |  |
| COC(=O)N/N=C/C1=C[N+](=O)c2ccccc2[N+]1=O |  | inactive: 17.4% |
| C=CCn1c(CCc2cc(C(C)(C)C)c(O)c(C(C)(C)C)c2)n[nH]c1=S |  | inactive: 21.6% |

By substructure: the compounds so far containing a furan ring, fused or not (3)

| Structure (SMILES) | Potency | activity change, negative = inhibition |
| --- | --- | --- |
| CC(=O)c1cccc(NC2c3ncccc3C(=O)N2Cc2ccco2)c1 (stereo unspecified) | inconclusive: 3.98 µM [activator, single point] |  |
| Cc1cc(C(=O)CSc2nnc(-c3ccco3)o2)c(C)n1-c1ccc2c(c1)OCCO2 | active: 8.91 µM |  |
| COc1ccc(/C=N/Nc2nc(NCc3ccco3)nc(Nc3ccc(OC)cc3)n2)cc1 |  | inactive: 8.97% |

Next results

| Structure (SMILES) | Potency | activity change, negative = inhibition |
| --- | --- | --- |
| O=[N+]([O-])c1cccc(NC(=S)N2CCc3ccccc3C2)c1 | inconclusive: 11.2 µM [inhibitor, single point] |  |
| O=C1CC(N2CCN(c3ccccn3)CC2)C(=O)N1c1ccc(Cl)cc1 (stereo unspecified) |  | inactive: -10% [at 9.22 µM] |
| COc1cc2c(=O)n(-c3ccc(C)cc3)c(=O)n(CC(=O)c3ccc4c(c3)OCO4)c2cc1OC | inconclusive: 5.62 µM [activator, single point] |  |
| Cc1ccc(S(=O)(=O)NCCC(=O)Nc2ccc(Cl)c(Cl)c2)cc1C |  | inactive: -8.35% |
| O=C(CNC(=O)c1ccco1)Nc1ccc(F)cc1 |  | inactive: -4.14% |
| CS(=O)(=O)N(CC(=O)Nc1ccc2c(c1)OCCO2)Cc1ccc(Cl)cc1 | inconclusive: 1.26 µM [activator, single point] |  |
| COc1ccccc1Oc1ccc(S(=O)(=O)NCc2ccccn2)cc1 | inconclusive: 11.2 µM [inhibitor, single point] |  |
| O=C(NCc1ccccn1)C1CCN(Cc2cnn(-c3ccccc3)c2-n2cccc2)CC1 |  | inactive: -7.1% |
| O=C(N/N=C\c1cn(-c2ccccc2)nc1-c1ccccc1)c1ccc2c(c1)OCO2 | inconclusive: 35.5 µM [inhibitor, single point] |  |
| COc1ccc(NC(=O)/C(=C/c2ccc3c(c2)OCO3)NC(C)=O)cc1 | inconclusive: 2.51 µM [activator, partial curve] |  |
| CCn1c(SCC(=O)c2ccc(Cl)cc2)nnc1-c1ccoc1C | inconclusive: 22.4 µM [activator, single point] |  |
| Cc1occc(=O)c1OC(=O)Nc1ccc(Cl)c(Cl)c1 | inconclusive: 14.1 µM [inhibitor, single point] |  |
| Cc1cc(NC(=O)COC(=O)c2ccccc2[N+](=O)[O-])no1 |  | inactive: 20.4% |
| CCCCC(CC)CNC(=O)C(=O)C1C(=O)Nc2ccccc21 (stereo unspecified) | inconclusive: 28.2 µM [inhibitor, single point] |  |
| CN1CC(c2ccc(Cl)c(Cl)c2)[C@@]2(COc3ccccc3C2=O)[C@@]12C(=O)Nc1ccccc12 (stereo partly specified) | inconclusive: 14.1 µM [inhibitor, single point] |  |
| CNC(=S)N/N=C1\C(=O)c2cccc3cccc1c23 | inconclusive: 12.6 µM [activator, partial curve] |  |
| CC(=O)/C=C1/C(=O)Nc2ccccc21 | inconclusive: 31.6 µM [inhibitor, single point] |  |
| COc1ccc(OC)c(C(=O)Cn2c3[n+](c4ccc(C(F)(F)F)cc42)CCCCC3)c1 | inconclusive: 31.6 µM [inhibitor, single point] |  |
| Nc1nc(SCC(=O)c2ccc(Oc3ccccc3)cc2)n[nH]1 |  | inactive: 0.115% |
| Cc1ccc(Nc2nnns2)cc1C |  | inactive: 5.35% |
| O=[N+]([O-])c1ccc(O)c(N=Cc2sc3ccccc3c2O)c1 | active: 7.94 µM |  |
| CCOCCCNC(=O)/C(C#N)=C/c1ccc([N+](=O)[O-])o1 |  | inactive: -34.3% [at 9.22 µM] |
| Nc1c(C(=O)N2CCCCC2)sc(=S)n1-c1ccccc1 | inconclusive: 2 µM [inhibitor, partial curve] |  |
